Reference: publication PMC9101108, “Shifting CCR7 towards Its Monomeric Form Augments CCL19 Binding and Uptake” (Cells, 2022)
Results are given in words; binding and its absence hold for the method and conditions named. In cells and extracts the contact can be indirect. Some results given as binding are weak or reduced against the parent protein; the word gives no strength.

Amino acid sequences for entries named in this document (tags omitted). A change or cut given only in a name is not applied to a line headed by its entry. Chains listed by the source or under a name are the forms on record and can include a tag or linker. Residues count along the entry.
human CCR7 wild-type fused to split-luciferase parts (hCCR7-nLuc161 and hCCR7-nLuc11) (P32248, residues 25-378): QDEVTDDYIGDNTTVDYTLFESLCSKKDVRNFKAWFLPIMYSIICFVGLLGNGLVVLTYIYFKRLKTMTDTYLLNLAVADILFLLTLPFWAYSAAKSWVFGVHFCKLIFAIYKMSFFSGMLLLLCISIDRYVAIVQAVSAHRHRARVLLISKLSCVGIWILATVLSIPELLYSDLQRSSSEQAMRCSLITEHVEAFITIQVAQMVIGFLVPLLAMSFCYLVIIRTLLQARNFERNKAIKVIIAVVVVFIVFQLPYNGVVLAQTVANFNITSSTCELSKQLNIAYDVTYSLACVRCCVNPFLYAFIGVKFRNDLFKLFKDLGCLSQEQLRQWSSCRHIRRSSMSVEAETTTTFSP
human CCR7 A315G fused to split-luciferase parts (P32248, form named): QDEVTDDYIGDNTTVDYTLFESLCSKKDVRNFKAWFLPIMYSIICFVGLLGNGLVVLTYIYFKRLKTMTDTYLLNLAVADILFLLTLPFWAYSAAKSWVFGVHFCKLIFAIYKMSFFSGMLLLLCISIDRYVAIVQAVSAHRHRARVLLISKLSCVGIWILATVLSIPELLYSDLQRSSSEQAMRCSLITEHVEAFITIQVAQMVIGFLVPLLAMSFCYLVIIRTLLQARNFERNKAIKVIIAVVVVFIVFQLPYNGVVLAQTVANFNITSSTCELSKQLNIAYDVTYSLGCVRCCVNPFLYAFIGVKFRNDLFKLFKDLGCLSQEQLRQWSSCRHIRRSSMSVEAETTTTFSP
human CCR7 L325S fused to split-luciferase parts (P32248, form named): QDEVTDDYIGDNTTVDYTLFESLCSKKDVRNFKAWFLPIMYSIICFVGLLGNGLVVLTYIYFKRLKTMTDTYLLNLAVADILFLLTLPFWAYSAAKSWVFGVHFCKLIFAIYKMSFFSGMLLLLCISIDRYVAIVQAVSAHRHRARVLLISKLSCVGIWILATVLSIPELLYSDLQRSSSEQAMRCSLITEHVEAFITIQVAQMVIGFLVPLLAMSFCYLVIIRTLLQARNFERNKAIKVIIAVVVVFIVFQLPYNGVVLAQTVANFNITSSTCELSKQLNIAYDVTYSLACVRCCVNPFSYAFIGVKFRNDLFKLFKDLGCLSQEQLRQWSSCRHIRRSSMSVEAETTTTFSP
human CCR7 SNP V317I fused to split-luciferase parts (P32248, form named): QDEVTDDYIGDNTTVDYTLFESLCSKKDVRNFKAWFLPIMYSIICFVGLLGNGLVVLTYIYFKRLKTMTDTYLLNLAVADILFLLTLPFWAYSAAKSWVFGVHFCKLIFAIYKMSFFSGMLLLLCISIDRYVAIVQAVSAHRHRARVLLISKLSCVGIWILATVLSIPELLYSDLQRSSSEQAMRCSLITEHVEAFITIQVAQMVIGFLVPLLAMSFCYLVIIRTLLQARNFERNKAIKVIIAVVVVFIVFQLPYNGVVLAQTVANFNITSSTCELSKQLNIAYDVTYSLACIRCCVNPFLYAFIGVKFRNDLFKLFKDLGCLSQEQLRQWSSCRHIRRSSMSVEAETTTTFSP

Experiments:
[1] = molecular target: human CCR7 A315G fused to split-citrine fragments (human) (UniProt P32248); assay: split reporter; split-citrine BiFC; CCR7-C1 and CCR7-C2 co-transfected 1:1 in HeLa cells; complemented citrine fluorescence (523-548 nm) after 30 min at 37 °C, normalised to CCR7 WT
[2] = molecular target: human CCR7 A315G fused to split-luciferase parts (human) (UniProt P32248); assay: split reporter; split-luciferase complementation; CCR7-nLuc161 and CCR7-nLuc11 co-transfected 1:1 in HeLa cells; 5 uM coelenterazine H, 37 °C, luminescence after 10 min
[3] = molecular target: human CCR7 L325S fused to split-citrine fragments (human) (UniProt P32248); assay: split reporter; split-citrine BiFC; CCR7-C1 and CCR7-C2 co-transfected 1:1 in HeLa cells; complemented citrine fluorescence (523-548 nm) after 30 min at 37 °C, normalised to CCR7 WT
[4] = molecular target: human CCR7 L325S fused to split-luciferase parts (human) (UniProt P32248); assay: split reporter; split-luciferase complementation; CCR7-nLuc161 and CCR7-nLuc11 co-transfected 1:1 in HeLa cells; 5 uM coelenterazine H, 37 °C, luminescence after 10 min
[5] = molecular target: human CCR7 SNP V317I fused to split-citrine fragments (human) (UniProt P32248); assay: split reporter; split-citrine BiFC; CCR7-C1 and CCR7-C2 co-transfected 1:1 in HeLa cells; complemented citrine fluorescence (523-548 nm) after 30 min at 37 °C, normalised to CCR7 WT
[6] = molecular target: human CCR7 SNP V317I fused to split-luciferase parts (human) (UniProt P32248); assay: split reporter; split-luciferase complementation; CCR7-nLuc161 and CCR7-nLuc11 co-transfected 1:1 in HeLa cells; 5 uM coelenterazine H, 37 °C, luminescence after 10 min
[7] = molecular target: human CCR7 wild-type fused to split-citrine fragments (hCCR7-C1 and hCCR7-C2) (human) (UniProt P32248); assay: split reporter; split-citrine BiFC; CCR7-C1 and CCR7-C2 co-transfected 1:1 in HeLa cells; complemented citrine fluorescence (523-548 nm) after 30 min at 37 °C, normalised to CCR7 WT
[8] = molecular target: human CCR7 wild-type fused to split-luciferase parts (hCCR7-nLuc161 and hCCR7-nLuc11) (human) (UniProt P32248); assay: split reporter; split-luciferase complementation; CCR7-nLuc161 and CCR7-nLuc11 co-transfected 1:1 in HeLa cells; 5 uM coelenterazine H, 37 °C, luminescence after 10 min

How did the binding [1] turn out when “human CCR7 A315G fused to split-citrine fragments (from UniProt P32248 25-378) (receptor)” was run?
The binding was “binds”.

For “human CCR7 A315G fused to split-luciferase parts (from UniProt P32248 25-378) (receptor)”, which binding [2] is on record?
The binding was “binds”.

How did the binding [3] turn out when “human CCR7 L325S fused to split-citrine fragments (from UniProt P32248 25-378) (receptor)” was run?
The binding was “binds”.

Which binding [4] does the source give for “human CCR7 L325S fused to split-luciferase parts (from UniProt P32248 25-378) (receptor)” here?
The binding was “binds”.

With “human CCR7 SNP V317I fused to split-citrine fragments (from UniProt P32248 25-378) (receptor)” as the substance, how does the binding [5] read?
The binding was “binds”.

Which binding [6] does the source give for “human CCR7 SNP V317I fused to split-luciferase parts (from UniProt P32248 25-378) (receptor)” here?
Its binding is “binds”.

Which binding [7] does the source give for “human CCR7 wild-type fused to split-citrine fragments (hCCR7-C1 and hCCR7-C2) (from UniProt P32248 25-378) (receptor)” here?
The binding was “binds”.

How did the binding [8] turn out when “human CCR7 wild-type fused to split-luciferase parts (hCCR7-nLuc161 and hCCR7-nLuc11) (from UniProt P32248 25-378) (receptor)” was run?
The binding was “binds”.
